Results are given in words; binding and its absence hold for the method and conditions named. In cells and extracts the contact can be indirect. Some results given as binding are weak or reduced against the parent protein; the word gives no strength.
Target: Hematopoietic progenitor kinase 1 (HPK1), endogenous protein of Jurkat T cells (human) (UniProt Q92918)
Experiment: co-immunoprecipitation with anti-Crk from Jurkat lysates, anti-HPK1 Western blot

By UniProt entry, the sequences of proteins in these tests, tags left out. Residues count along the entry.
UniProt Q92918: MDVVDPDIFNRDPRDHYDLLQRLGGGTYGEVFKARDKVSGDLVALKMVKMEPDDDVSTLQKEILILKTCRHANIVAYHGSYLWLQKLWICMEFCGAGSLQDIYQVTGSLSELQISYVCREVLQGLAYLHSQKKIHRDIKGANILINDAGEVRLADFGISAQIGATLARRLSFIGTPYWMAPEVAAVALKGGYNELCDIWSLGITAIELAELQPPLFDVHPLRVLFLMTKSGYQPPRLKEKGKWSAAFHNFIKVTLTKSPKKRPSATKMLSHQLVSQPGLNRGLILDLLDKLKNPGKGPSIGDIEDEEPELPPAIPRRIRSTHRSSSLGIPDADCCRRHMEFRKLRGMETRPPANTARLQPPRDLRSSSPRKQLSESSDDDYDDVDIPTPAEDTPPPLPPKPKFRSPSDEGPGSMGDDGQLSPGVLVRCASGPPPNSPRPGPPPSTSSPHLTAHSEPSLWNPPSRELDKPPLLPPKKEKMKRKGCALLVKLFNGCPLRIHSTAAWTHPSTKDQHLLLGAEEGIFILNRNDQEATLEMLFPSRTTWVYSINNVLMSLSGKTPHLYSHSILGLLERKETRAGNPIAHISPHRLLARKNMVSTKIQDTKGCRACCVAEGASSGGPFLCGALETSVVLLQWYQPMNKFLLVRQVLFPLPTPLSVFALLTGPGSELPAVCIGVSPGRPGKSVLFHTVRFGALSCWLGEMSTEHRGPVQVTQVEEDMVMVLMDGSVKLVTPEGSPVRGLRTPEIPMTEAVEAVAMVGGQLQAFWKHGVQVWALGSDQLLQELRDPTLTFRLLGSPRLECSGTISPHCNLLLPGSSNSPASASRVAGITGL
UniProt P46108, residues 2-304: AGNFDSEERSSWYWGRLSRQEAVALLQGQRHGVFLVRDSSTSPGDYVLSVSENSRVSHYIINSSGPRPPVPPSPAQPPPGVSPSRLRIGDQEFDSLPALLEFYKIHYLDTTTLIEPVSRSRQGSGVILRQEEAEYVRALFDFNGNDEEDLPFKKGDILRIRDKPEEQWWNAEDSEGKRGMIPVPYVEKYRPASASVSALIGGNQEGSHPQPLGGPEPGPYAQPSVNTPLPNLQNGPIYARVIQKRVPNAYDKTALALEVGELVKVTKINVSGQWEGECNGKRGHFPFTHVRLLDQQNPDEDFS

binding: binds
Substance: Crk adapter protein, endogenous protein of Jurkat T cells (from UniProt P46108 2-304)

— patent US20070087988A1, “Hematopoietic progenitor kinase 1 for modulation of an immune response” (New York University, priority 2005, published 2007)
